Read-outs that look alike come from different tables or passages of the source. Some entries share one result that the patent states for a list of compounds.
System: APP processing by γ-secretase: Aβ40 and Aβ42 peptides generated from SH-SY5Y cells expressing amyloid β protein (SP4CT cells)
Experiment: APP processing: AlphaLisa assay of secreted Aβ40 and Aβ42 from SP4CT cells
Assay type: cell-based
Method: APP Processing (Assay Quantitates Secreted Aβ Analytes from Cell Lines):
The effect of compounds on the abundance of Aβ40 and Aβ42 peptides generated from SH-SY5Y cells expressing amyloid β protein (SP4CT cells) are determined by an AlphaLisa™ assay. Analogous to an ELISA assay, generation of […] AlphaLisa™ assay requires “donor” and “acceptor” beads to be brought in close proximity by specific antibody recognition of either Aβ40 or Aβ42 peptides. The assay is accomplished by removing media from compound-treated SP4CT cells to two different microplates, followed by the addition of donor beads conjugated with streptavidin binding a biotinylated anti-amyloid β monocolonal antibody (clone 4G8). Acceptor beads directly conjugated with anti-Aβ40 monoclonal antibody (G210) are added to one microplate and anti-Aβ42 monoclonal antibody (12F4) acceptor beads were added to the other. Abundance of Aβ40 and Aβ42 is directly proportional to the luminescent signal generated following excitation of donor beads by laser light.

Substance: N-(1-{3-[1-ethyl-3-(4-fluorophenoxy)-1H-pyrazol-5-yl]phenyl}-1-methylethyl)-2,2,2-trifluoroethanesulfonamide [Example 53]
- IC50 (read-out: IC50, inhibition of production of Aβ40 peptide): < 200 nM
- IC50 (read-out: IC50, inhibition of production of Aβ42 peptide): < 200 nM

Reference: US8871796B2, “Diaryl ether derivatives as notch sparing gamma secretase inhibitors” (Merck Sharp & Dohme Corp., priority 2009, dated 2014)
